{"source": "patent US20090264382A1", "about": "“Methods for Treating Hematopoietic Neoplasms” (priority 2007, published 2009)", "system": "HL60 cells", "assay": "Reversal of CA4P-induced apoptosis by caspase inhibitors and ROS scavenger, Annexin V/PI", "type": "cell-based, human", "conditions": "HL60, DFX alone, 48 hours", "note": "At least one structure is not confirmed: it was looked up by name or label, or the drawing left a doubt."}
{"smiles": "CC(=O)N(O)CCCCCNC(=O)CCC(=O)N(O)CCCCCNC(=O)CCC(=O)N(O)CCCCCN", "note": "[DFX, deferoxamine]", "values": [{"measurement": "effect on CA4P-induced cell death", "result": "slightly inhibited"}]}
